Laboratory results: PubChem BioAssay AID720505 (Drosophila RNAi Screening Center, 2013)

- Test: 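Fly regulators or components of the CRAC channel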 (primary screen)
- Cells: Drosophila S2R+ cells
- Reagents: long dsRNA against Drosophila genes
- Treatment: thapsigargin (2 µM) in calcium-free buffer to empty internal stores, then 2 mM calcium added back
- Measurement: 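Fluo-4 signal in 384-well plates read on a FLIPR after thapsigargin (2 µM, calcium-free) store depletion and 2 mM calcium add-back; unnormalised mean endpoint per well; screen run twice, selected wells retested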
- Direction: calcium signal: higher = more calcium entry after store depletion
- Active means: 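About 1500 genes called as lowering calcium entry, by varying amounts, judged against per-plate control wells with STIM1 as positive and Rho1 as negative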
- Meaning of the calls: active = called as lowering calcium entry; inactive = not called
In all, the deposit lists about 20,000 reagents; this is an unselected part of those with a known target gene and a result. Over the whole deposit, about 2,100 (10%) were called active. 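Raw plate signals without normalisation; calls rest on control-based scores that were not deposited; replicate 2 separates called from uncalled poorly.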 Unmarked entries are inactive. Reagents against one gene are numbered here. Not stated in the record: the amount of reagent, the time to read-out.

Which result is listed for CG15458?
calcium signal, replicate 1: 79.4; calcium signal, replicate 2: 101

With CG15368 #1, how do the results read?
calcium signal, replicate 1: 122; calcium signal, replicate 2: 124

With CG15368 #2, how do the results read?
calcium signal, replicate 1: 186; calcium signal, replicate 2: 157

How did the screen score CNPYb?
calcium signal, replicate 1: 95; calcium signal, replicate 2: 90.3

What did the screen give for CG11815?
calcium signal, replicate 1: 82.8; calcium signal, replicate 2: 109

For CG18766, what was measured?
calcium signal, replicate 1: 121; calcium signal, replicate 2: 113

Which result is listed for CG5062?
calcium signal, replicate 1: 315; calcium signal, replicate 2: 76.8

For ppk18 #1, how do the results read?
calcium signal, replicate 1: 169; calcium signal, replicate 2: 158

How did the screen score ppk18 #2?
calcium signal, replicate 1: 146; calcium signal, replicate 2: 125

What is on record for Smug?
calcium signal, replicate 1: 122; calcium signal, replicate 2: 156

2 consecutive records from above, for reference:
CG11815 → calcium signal, replicate 1 = 82.8; calcium signal, replicate 2 = 109
CG18766 → calcium signal, replicate 1 = 121; calcium signal, replicate 2 = 113

The results go on.
For CG33454, what was measured?
calcium signal, replicate 1: 107; calcium signal, replicate 2: 187

Which result is listed for DNAlig4?
calcium signal, replicate 1: 56.1 (active); calcium signal, replicate 2: 117

How did the screen score CG43795 #1?
calcium signal, replicate 1: 112; calcium signal, replicate 2: 188

What did the screen give for CG43795 #2?
calcium signal, replicate 1: 98.4; calcium signal, replicate 2: 143

How did the screen score CG43795 #3?
calcium signal, replicate 1: 167; calcium signal, replicate 2: 163

With CG43795 #4, what does the deposit list?
calcium signal, replicate 1: 166; calcium signal, replicate 2: 203

With CG43795 #5, what was measured?
calcium signal, replicate 1: 142; calcium signal, replicate 2: 159

Which result is listed for CG43795 #6?
calcium signal, replicate 1: 83.1; calcium signal, replicate 2: 106

For CG43795 #7, how do the results read?
calcium signal, replicate 1: 115; calcium signal, replicate 2: 87.5
